# Measurements as given in US20060035920A1, “Chk-1 inhibitors” (Millennium Pharmaceuticals, Inc., priority 2004, published 2006).
# Some entries share one result that the patent states for a list of compounds.
# Target: T1, Recombinant human Chk1 (GST-Chk1) (Homo sapiens, UniProt O14757)
# T1 construct: made in house; host or cells: insect cells (baculovirus, Bac-to-Bac system)
# T1 sequence (O14757 1-476): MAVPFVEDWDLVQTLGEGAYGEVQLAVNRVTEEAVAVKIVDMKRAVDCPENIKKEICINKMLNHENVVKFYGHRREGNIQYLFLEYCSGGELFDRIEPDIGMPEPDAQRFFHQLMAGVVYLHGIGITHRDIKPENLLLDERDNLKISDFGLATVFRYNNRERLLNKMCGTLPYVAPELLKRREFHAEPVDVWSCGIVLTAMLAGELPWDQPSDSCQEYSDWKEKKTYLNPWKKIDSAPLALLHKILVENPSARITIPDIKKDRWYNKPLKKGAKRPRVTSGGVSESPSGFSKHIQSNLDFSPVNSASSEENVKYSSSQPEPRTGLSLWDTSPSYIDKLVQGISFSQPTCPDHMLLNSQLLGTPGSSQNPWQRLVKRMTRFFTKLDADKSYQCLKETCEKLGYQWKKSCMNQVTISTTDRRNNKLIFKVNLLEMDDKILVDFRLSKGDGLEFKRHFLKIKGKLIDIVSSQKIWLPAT
# Assay: Chk1 DELFIA Kinase Assay
# Assay type: biochemical
# Settings: bound given in nM
# Method: Recombinant human Chk1 was expressed as a fusion protein with glutathione S-transferase at the amino-terminus (GST-Chk1) using standard baculovirus vectors and (Bac-to-Bac®) insect cell expression system purchased from GIBCO™ Invitrogen. Recombinant protein expressed in insect cells was purified using glutathione sepharose (Amersham Biotech) using standard procedures described by the manufacturer.
# Chk1 DELFIA® Kinase Assay:
# Assays (25 μL) utilized 2 nM GST-Chk1 containing 10 mM Tris, pH 7.5, 20% glycerol, 50 mM sodium chloride (NaCl), 0.01% Surfact-Amps® 20, 1 μM peptide stubstrate (Biotin-GLYRSPSMPEN-amide) (SEQ ID NO: 2), 01.% BSA, 2 mM DTT, 4% DMSO, 600 μM ATP, 10 mM MgCl2 and reacted for 50 minutes at room temperature. Reactions were terminated with 100 μL of Stop buffer containing 1% BSA, 10 mM Tris, pH 8.0, 150 mM NaCl, 100 mM EDTA. Stopped reactions (100 μL) were transferred to 96 well NeutrAvidin plates (Pierce) to capture the biotin-peptide substrate during a 30 minute room temperature incubation. […] Wells were washed and europium released from the bound antibody by addition of Enhancement Solution (100 μL) (PerkinElmer Wallac) and detected using a Perkin Elmer Wallac Envison™ 2100 multilabel reader using standard manufacturer settings.
substance,measurement,value
"5-ethyl-3-methyl-4-methylene-8-[5-(piperidin-1-ylmethyl)-2-thienyl]-4,5-dihydro-2H-pyrazolo[4,3-c]quinoline [Compound I-49]",IC50,< 500 nM
